Measured values taken from PubChem BioAssay AID1794844 (National Center for Advancing Translational Sciences (NCATS), 2023).
The campaign covered roughly 2,800 compounds. Fewer than 10 were called active. About 7% were inconclusive and are not listed. Calls come from the whole dose curve; as a rule, active = well fitted inhibition curve with a large enough effect; inconclusive = small, poorly fitted or top-dose-only effect; inactive = no such curve, though single readings can be large or run the other way. Some of the results follow.

Protein sequences, listed by entry. Tags and fused reporters are not part of them. Lines headed by an entry give the natural chain unless they say otherwise; changes in a name come on top.
UniProt C7C422: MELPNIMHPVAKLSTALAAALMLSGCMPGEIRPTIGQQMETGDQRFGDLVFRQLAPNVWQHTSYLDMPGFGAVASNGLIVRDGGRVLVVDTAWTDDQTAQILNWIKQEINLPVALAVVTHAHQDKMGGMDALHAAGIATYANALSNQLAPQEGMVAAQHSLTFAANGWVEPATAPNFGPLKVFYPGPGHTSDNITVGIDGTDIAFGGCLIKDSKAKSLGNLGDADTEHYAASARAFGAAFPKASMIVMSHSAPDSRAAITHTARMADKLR

Target: Metallo-beta-lactamase type 2 (Klebsiella pneumoniae) (UniProt C7C422)
Test: qHTS to identify inhibitors of the New Delhi Metallo-beta-lactamase (NDM): Nitrocefin screen against the machine-based learning selections. Note: % of control where 0% means no effect.
Settings: NDM-1 enzyme, nitrocefin hydrolysis, absorbance 485 nm; activity, negative = inhibition: at the top concentration
Summary of the method: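 Hydrolysis by 2 nM NDM-1 was followed by absorbance after >30 min compound preincubation in HEPES pH 7.0 buffer with 1 uM Zn2SO4. For nitrocefin (16.7 uM, 15 min, 485 nm) and meropenem (50 uM, 30 min, 300 nm), each substrate ran on separate plates.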

Compound	activity, negative = inhibition
CC(C)CCN1CCNC(=O)C1CC(=O)N(Cc1nccs1)C1CC1 (configuration not stated)	inactive: -9.28%
COc1ccc(CN2CC[C@@H]3[C@H]2C(=O)NC[C@H](CCC(=O)NCc2ccc(F)cc2)N3C)cc1	inactive: -2.38%
CCn1nc(C)cc1C(=O)N1CCOC[C@H](Oc2cccnc2)C1	inactive: -8.67% [at 57.5 µM]
Cn1c(CN2CCOCC2)nnc1C1CCCN(S(=O)(=O)C2CC2)C1 (configuration not stated)	inactive: 5.95%
COc1ccccc1C(=O)NC1CCN(c2ccc(C)cc2)C1=O (configuration not stated)	inactive: 2.33%
Cc1noc2c(Nc3ccc(C(N)=O)cc3)cc(-c3cccnc3)nc12	inactive: 12.5% [at 57.5 µM]
O=C(CN1C(=O)CNC1=O)NCCc1noc(-c2ccccc2)n1	inactive: 0.866%
Cc1ccc(-c2cnc([C@@H]3COCCN3Cc3ccccc3F)[nH]2)cc1	inactive: -12.1% [at 57.5 µM]
CC(C)c1cccc(NC(=O)c2ccc3c(c2)N(C)C2CCCCN2C3=O)c1 (configuration not stated)	inactive: -3.6%
COc1ccc(CN2C(=O)CO[C@H]3CN(C4CCOCC4)C[C@H]32)cc1	inactive: -2.35% [at 57.5 µM]
CN1C[C@H](C(=O)NCc2ccncc2)C[C@H]1c1cccc(C(F)(F)F)c1	inactive: 0.278% [at 57.5 µM]
CC(C)(O)CCc1cccc(C(=O)N(Cc2ccc3c(c2)OCO3)C2CC2)c1	inactive: -5.98%
c1ccc(Nc2ncc(-c3ccccc3)c3c2OCC3)cc1	inactive: 1.17% [at 76.7 µM]
CC1(C(=O)NCc2cnccn2)CCCc2cnc(NCc3ccccc3)nc21 (configuration not stated)	inactive: -5.69% [at 57.5 µM]
O=C1N[C@H](CCC(=O)N2CCN(Cc3ccccc3)CC2)C(=O)Nc2ccccc21	inactive: 0.58%
Cc1cc2c(cc1C(=O)N[C@H](c1ccccn1)C1CC(O)C1)OCCO2 (some centres not stated)	inactive: -0.47%
O=C(NCCc1nccc(-c2ccccc2)n1)[C@H]1CCC[C@H](O)C1	inactive: -12.7%
O=[N+]([O-])c1ccccc1CN1C[C@H](O)C[C@H]1c1nc(-c2ccncc2)no1	inactive: 4.16% [at 57.5 µM]
CNC(=O)[C@@H]1CN(C(=O)c2cc3cc(OC)ccc3[nH]2)C[C@H]1CO	inactive: -11%
COC(=O)[C@@H]1Cc2ncn(Cc3ccc(OC)cc3)c2CN1C(=O)c1ccc(C#N)cc1	inactive: 2.06% [at 57.5 µM]
O=C1NCCC[C@@H]1NC(=O)[C@H]1CN(C(=O)c2cccc(F)c2)CCN1S(=O)(=O)c1ccc(F)cc1	inactive: 4.23%
CC1=C[C@@H](CNC(=O)C2CC2)[C@H](C(C)C)C[C@H]1CC(=O)N1CCOCC1	inactive: 6.93% [at 57.5 µM]
CC(C)C[C@@H]1N[C@H](C(=O)NCc2ccc(C(F)(F)F)cc2)Cc2c[nH]c3cccc1c23	inactive: 1.11% [at 57.5 µM]
CC(C)(C)CC(=O)Nc1ccc([C@@H](O)[C@H]2COCC(=O)N2Cc2ccccc2F)cc1	inactive: -1.39% [at 57.5 µM]

Compound	activity, negative = inhibition
Cc1cc(C)c(CNC(=O)c2nc(Nc3ccccc3)cc3[nH]ccc23)c(=O)[nH]1	inactive: -4.13% [at 57.5 µM]
O=c1cc(-c2ccccn2)oc2c(Nc3ccccc3)nccc12	inactive: -1.82% [at 57.5 µM]
O=C(COc1ccccc1)N[C@H]1CO[C@H]2[C@@H]1OC[C@H]2OC(=O)Nc1ccccc1	inactive: -4.57% [at 57.5 µM]
CS(=O)(=O)Nc1cc(-c2noc([C@@H]3CCCN3Cc3ccccc3)n2)ccn1	inactive: -3.05% [at 57.5 µM]
CCCS(=O)(=O)N1CCC(Oc2nccnc2N2CCOCC2)C1 (configuration not stated)	inactive: 1.63%
NC(=O)c1cccc(-c2n[nH]c3c2CC(=O)N(CCOc2ccccc2)C3)c1	inactive: -8.42% [at 57.5 µM]
O=C(Cc1c[nH]c2ncc(-c3ccccc3Oc3ccccc3)cc12)NCc1cccnc1	inactive: -1.93% [at 57.5 µM]
O=C(NCc1csc(-c2cnccn2)n1)C(c1cccnc1)N1CCOCC1 (configuration not stated)	inactive: -2.44%
O=C(c1ccc(Oc2ccccc2)cc1)N1CCNc2cnc(Nc3cccc(C(F)(F)F)c3)nc2C1	inactive: 2.49%
COCCNC(=O)[C@H]1C[C@H](Oc2ccccc2)CN1C(=O)Cc1cccc(C)c1	inactive: -10.4%
Cc1ccc(CCNC(=O)Cn2nc(C)n(CCc3ccccc3)c2=O)o1	inactive: 1.62%
Cc1oc(C(O)c2cccc(O)c2)nc1C(=O)Nc1ccc(N2CCOCC2)cc1 (configuration not stated)	inactive: 2.1% [at 57.5 µM]
O=C(COc1ccccc1)N1CC[C@H]2CC(=O)N(c3ccccc3)CC[C@H]2C1	inactive: -2.55% [at 57.5 µM]
O=C(O)[C@@H]1CN(C(=O)c2ccc(=O)[nH]c2)C[C@H]1c1ccc2c(c1)OCO2	inactive: -5.25%
COc1cccc(N2C(=O)N[C@@H]3CCN(S(=O)(=O)c4ccccc4)[C@@H]3C2=O)c1	inactive: 0.447% [at 57.5 µM]
CS(=O)(=O)c1ccc(CN2CCC[C@H]2c2nc(-c3ccnc(N4CCC(C(N)=O)CC4)c3)no2)cc1	inactive: -1.81%
O=C(Cc1c[nH]c2ncc(-c3cccc(F)c3)cc12)NCc1cccnc1	inactive: 9.64% [at 57.5 µM]
O=C(CCc1ccc(O)cc1)N1CCN(Cc2ccccc2)CC(O)C1 (configuration not stated)	inactive: -1.57%
Nc1nc(NCCNC(=O)c2ccccc2Cl)cc(C2CC(O)C2)n1 (configuration not stated)	inactive: -3.42%
NC1CCCCN(C(=O)c2ccc3n[nH]nc3c2)C1 (configuration not stated)	inactive: -3.83%
CCCn1nc(C)c(-c2cc(C(=O)N3CCc4c(nc5cc(-c6ccccc6)[nH]n5c4=O)C3)[nH]n2)c1C	inactive: 0.136%
O=C(NCC(F)F)C1CN(c2ccccc2)C(=O)N1 (configuration not stated)	inactive: 0.427% [at 57.5 µM]
CC(=O)NC1(C)CCN(Cc2cccc(-c3ccc4ccccc4c3)c2)C1 (configuration not stated)	inactive: -4.87% [at 57.5 µM]

Ordered by length of the SMILES (descending): part of the list above.
Compound	activity, negative = inhibition
O=C1NCCC[C@@H]1NC(=O)[C@H]1CN(C(=O)c2cccc(F)c2)CCN1S(=O)(=O)c1ccc(F)cc1	inactive: 4.23%
CC1=C[C@@H](CNC(=O)C2CC2)[C@H](C(C)C)C[C@H]1CC(=O)N1CCOCC1	inactive: 6.93% [at 57.5 µM]
CC(C)(O)CCc1cccc(C(=O)N(Cc2ccc3c(c2)OCO3)C2CC2)c1	inactive: -5.98%
